{"source": "PubChem BioAssay AID1259405 (NCATS, 2018)", "aim": "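Silenced genes that increase secreted GFP made by CHO cells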 (primary screen)", "system": "Chinese hamster CHO-K1 ovary cells with stable secreted eGFP expression", "knock-down reagent": "single siRNA against mouse genes, 0.8 pmol siRNA per well (2 µl of 400 nM stock)", "duration": "3 days", "measurement": "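Percent of the per-plate non-targeting control median for intracellular GFP per well by laser scanning cytometry and for cell viability by ATP luminescence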", "direction": "GFP, % of control: higher = more GFP per well, higher productivity; viability (ATP), % of control: higher = more viable cells (more ATP)", "call rule": "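a knock-down is called active if GFP reaches 120% or more of non-targeting control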", "note": "This is one part, drawn at random, of about 50,000 reagents tested. About 4,000 of them (8%) count as active. 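Mouse siRNA library applied to hamster cells; one well for each siRNA.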 The numbers tell different reagents against one gene apart."}
{"gene knocked down": "Pcdhgb4", "reagent": 1, "GFP, % of control": 87.7, "viability (ATP), % of control": 75.2, "Outcome": "inactive"}
{"gene knocked down": "Pcdhgb4", "reagent": 2, "GFP, % of control": 58.5, "viability (ATP), % of control": 84.2, "Outcome": "inactive"}
{"gene knocked down": "Pcdhgb4", "reagent": 3, "GFP, % of control": 67.3, "viability (ATP), % of control": 35.9, "Outcome": "inactive"}
{"gene knocked down": "Igf1", "reagent": 1, "GFP, % of control": 107, "viability (ATP), % of control": 62.1, "Outcome": "inactive"}
{"gene knocked down": "Igf1", "reagent": 2, "GFP, % of control": 104, "viability (ATP), % of control": 45.9, "Outcome": "inactive"}
{"gene knocked down": "Igf1", "reagent": 3, "GFP, % of control": 99.6, "viability (ATP), % of control": 44.1, "Outcome": "inactive"}
{"gene knocked down": "Cd74", "reagent": 1, "GFP, % of control": 111, "viability (ATP), % of control": 58.7, "Outcome": "inactive"}
{"gene knocked down": "Cd74", "reagent": 2, "GFP, % of control": 123, "viability (ATP), % of control": 82.9, "Outcome": "active"}
{"gene knocked down": "Cd74", "reagent": 3, "GFP, % of control": 145, "viability (ATP), % of control": 89.8, "Outcome": "active"}
{"gene knocked down": "Cela3b", "reagent": 1, "GFP, % of control": 28.3, "viability (ATP), % of control": 32.4, "Outcome": "inactive"}
{"gene knocked down": "Cela3b", "reagent": 2, "GFP, % of control": 72.5, "viability (ATP), % of control": 74.1, "Outcome": "inactive"}
{"gene knocked down": "Cela3b", "reagent": 3, "GFP, % of control": 36.1, "viability (ATP), % of control": 43.6, "Outcome": "inactive"}
{"gene knocked down": "Cyp2a4", "reagent": 1, "GFP, % of control": 80.8, "viability (ATP), % of control": 38.7, "Outcome": "inactive"}
{"gene knocked down": "Cyp2a4", "reagent": 2, "GFP, % of control": 42.9, "viability (ATP), % of control": 41.7, "Outcome": "inactive"}
{"gene knocked down": "Cyp2a4", "reagent": 3, "GFP, % of control": 76.8, "viability (ATP), % of control": 89.3, "Outcome": "inactive"}
{"gene knocked down": "Sugp1", "reagent": 1, "GFP, % of control": 47, "viability (ATP), % of control": 53.1, "Outcome": "inactive"}
{"gene knocked down": "Sugp1", "reagent": 2, "GFP, % of control": 115, "viability (ATP), % of control": 97.7, "Outcome": "inactive"}
{"gene knocked down": "Sugp1", "reagent": 3, "GFP, % of control": 62.4, "viability (ATP), % of control": 53.7, "Outcome": "inactive"}
{"gene knocked down": "Hsp90ab1", "reagent": 1, "GFP, % of control": 55, "viability (ATP), % of control": 78.3, "Outcome": "inactive"}
{"gene knocked down": "Hsp90ab1", "reagent": 2, "GFP, % of control": 85.4, "viability (ATP), % of control": 73.3, "Outcome": "inactive"}
{"gene knocked down": "Hsp90ab1", "reagent": 3, "GFP, % of control": 71.6, "viability (ATP), % of control": 85, "Outcome": "inactive"}
{"gene knocked down": "Nudt16l1", "reagent": 1, "GFP, % of control": 124, "viability (ATP), % of control": 89.2, "Outcome": "active"}
{"gene knocked down": "Nudt16l1", "reagent": 2, "GFP, % of control": 89.1, "viability (ATP), % of control": 42.6, "Outcome": "inactive"}
{"gene knocked down": "Nudt16l1", "reagent": 3, "GFP, % of control": 53.8, "viability (ATP), % of control": 64, "Outcome": "inactive"}
{"gene knocked down": "Tubg1", "reagent": 1, "GFP, % of control": 62.4, "viability (ATP), % of control": 75, "Outcome": "inactive"}
{"gene knocked down": "Tubg1", "reagent": 2, "GFP, % of control": 70.4, "viability (ATP), % of control": 81.1, "Outcome": "inactive"}
{"gene knocked down": "Clec4g", "reagent": 1, "GFP, % of control": 106, "viability (ATP), % of control": 60.3, "Outcome": "inactive"}
{"gene knocked down": "Clec4g", "reagent": 2, "GFP, % of control": 40.3, "viability (ATP), % of control": 62.4, "Outcome": "inactive"}
{"gene knocked down": "Clec4g", "reagent": 3, "GFP, % of control": 90.5, "viability (ATP), % of control": 50, "Outcome": "inactive"}
{"gene knocked down": "Cd274", "reagent": 1, "GFP, % of control": 16.5, "viability (ATP), % of control": 33.9, "Outcome": "inactive"}
{"gene knocked down": "Cd274", "reagent": 2, "GFP, % of control": 80.3, "viability (ATP), % of control": 76.8, "Outcome": "inactive"}
{"gene knocked down": "Cd274", "reagent": 3, "GFP, % of control": 57.1, "viability (ATP), % of control": 66, "Outcome": "inactive"}
{"gene knocked down": "Clec4n", "reagent": 1, "GFP, % of control": 80.6, "viability (ATP), % of control": 54.8, "Outcome": "inactive"}
{"gene knocked down": "Clec4n", "reagent": 2, "GFP, % of control": 88.8, "viability (ATP), % of control": 41.1, "Outcome": "inactive"}
{"gene knocked down": "Clec4n", "reagent": 3, "GFP, % of control": 69.4, "viability (ATP), % of control": 59.2, "Outcome": "inactive"}
{"gene knocked down": "Pop4", "reagent": 1, "GFP, % of control": 125, "viability (ATP), % of control": 83.1, "Outcome": "active"}
{"gene knocked down": "Pop4", "reagent": 2, "GFP, % of control": 56.9, "viability (ATP), % of control": 49.6, "Outcome": "inactive"}
{"gene knocked down": "Pop4", "reagent": 3, "GFP, % of control": 75.6, "viability (ATP), % of control": 79.7, "Outcome": "inactive"}
{"gene knocked down": "Rdh1", "reagent": 1, "GFP, % of control": 146, "viability (ATP), % of control": 104, "Outcome": "active"}
{"gene knocked down": "Rdh1", "reagent": 2, "GFP, % of control": 84.9, "viability (ATP), % of control": 73.4, "Outcome": "inactive"}
{"gene knocked down": "Rdh1", "reagent": 3, "GFP, % of control": 41.9, "viability (ATP), % of control": 57.5, "Outcome": "inactive"}
